Our source for the binding values is publication PMC12752572.

The chains behind the UniProt entries cited, without tags or fusion partners.
UniProt P38919: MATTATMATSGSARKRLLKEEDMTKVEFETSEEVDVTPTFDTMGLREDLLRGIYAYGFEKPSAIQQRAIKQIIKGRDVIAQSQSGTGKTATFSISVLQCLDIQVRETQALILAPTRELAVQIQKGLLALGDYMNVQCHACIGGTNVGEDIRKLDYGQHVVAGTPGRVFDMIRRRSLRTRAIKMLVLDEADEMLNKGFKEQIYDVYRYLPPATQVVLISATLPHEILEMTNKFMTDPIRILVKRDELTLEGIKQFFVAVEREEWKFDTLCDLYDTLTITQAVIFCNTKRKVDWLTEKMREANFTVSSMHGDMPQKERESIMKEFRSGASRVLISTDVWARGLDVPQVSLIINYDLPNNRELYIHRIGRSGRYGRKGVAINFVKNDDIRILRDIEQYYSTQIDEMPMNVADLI
UniProt P01106: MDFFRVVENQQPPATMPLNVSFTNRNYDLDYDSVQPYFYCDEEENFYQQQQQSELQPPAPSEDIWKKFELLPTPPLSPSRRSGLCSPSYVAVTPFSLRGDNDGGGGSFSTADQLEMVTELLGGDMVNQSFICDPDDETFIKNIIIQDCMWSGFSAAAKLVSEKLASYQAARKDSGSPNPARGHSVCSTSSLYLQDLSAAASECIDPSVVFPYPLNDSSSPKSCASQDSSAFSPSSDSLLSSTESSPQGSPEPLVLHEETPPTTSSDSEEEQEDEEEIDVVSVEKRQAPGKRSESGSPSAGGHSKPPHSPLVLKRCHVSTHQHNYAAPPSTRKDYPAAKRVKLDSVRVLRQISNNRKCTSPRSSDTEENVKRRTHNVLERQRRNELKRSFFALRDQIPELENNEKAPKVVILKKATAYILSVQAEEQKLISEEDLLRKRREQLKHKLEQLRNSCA

Results are given in words; binding and its absence hold for the method and conditions named. Binding seen in cells or lysates may run through a third protein. Some entries that bind do so weakly or less than the wild type.

The target in assay [1] is EIF4A3 (human (endogenous in OSRC-2 and 786-O)) (UniProt P38919). The assay can be described thus: co-IP; RCC cells (OSRC-2, 786-O) lysed with protease inhibitors at 4 °C; primary antibody on protein A/G Sepharose beads, overnight; washed with IP buffer; Western blot.
Assay [2] concerns the target heterogeneous nuclear ribonucleoprotein K (HNRNPK) (human (endogenous in OSRC-2 and 786-O)) (UniProt P61978). The description is as above.

For c-MYC (from UniProt P01106 1-454), the binding result in assay [1] and in assay [2] was “binds” in each case.
